Binding data for 2 substances are collected here from article PMC9247205.

Common to all, as to assay: far-Western, overlay or dot blot; total protein extracts (20 µg) of V, 84 and ΔC amoeba transformants on 12% SDS-PAGE, blotted onto nitrocellulose, blocked with PBS-0.02% Tween 20-5% skimmed milk, incubated with 10 mM (so in the source) GST-SF1KQ or His-84KQ; developed with anti-GST or anti-His; only the binder purified
For assay [1], the target named is T1, Endogenous EhU2AF2 in empty vector (V) amoeba transformants (Entamoeba histolytica (endogenous in trophozoites)) (UniProt C4LXB3).
T1 sequence: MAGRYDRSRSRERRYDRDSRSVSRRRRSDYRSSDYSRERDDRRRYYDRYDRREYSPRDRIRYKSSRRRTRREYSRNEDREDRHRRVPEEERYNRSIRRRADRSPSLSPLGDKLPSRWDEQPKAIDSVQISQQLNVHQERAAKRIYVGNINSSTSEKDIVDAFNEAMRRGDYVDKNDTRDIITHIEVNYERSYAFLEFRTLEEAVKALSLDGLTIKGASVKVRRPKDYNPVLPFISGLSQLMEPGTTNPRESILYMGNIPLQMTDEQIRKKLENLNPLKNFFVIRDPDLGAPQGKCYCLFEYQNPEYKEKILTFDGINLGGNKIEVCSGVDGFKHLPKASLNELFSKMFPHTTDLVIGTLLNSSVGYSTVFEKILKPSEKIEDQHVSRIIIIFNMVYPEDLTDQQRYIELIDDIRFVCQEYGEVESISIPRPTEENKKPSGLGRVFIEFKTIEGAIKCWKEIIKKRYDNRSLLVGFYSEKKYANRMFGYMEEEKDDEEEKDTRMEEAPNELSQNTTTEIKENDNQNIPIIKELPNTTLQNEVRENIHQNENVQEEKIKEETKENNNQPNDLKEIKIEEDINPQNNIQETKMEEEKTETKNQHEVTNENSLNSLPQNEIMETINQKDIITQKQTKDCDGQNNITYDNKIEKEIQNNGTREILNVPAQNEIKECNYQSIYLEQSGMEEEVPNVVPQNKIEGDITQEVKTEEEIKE

Assay [2] deals with T2, EhU2AF2, full length, overexpressed from pHA-U2AF2 in amoeba transformants (Entamoeba histolytica) (UniProt C4LXB3).
T2 sequence: T1 sequence

Assay [3] has as its target T3, 35-kDa protein of amoeba extracts recognised by H6-84KQ, taken by the paper as EhSF1 (Entamoeba histolytica (endogenous in trophozoites)) (UniProt C4M4V3).
T3 sequence: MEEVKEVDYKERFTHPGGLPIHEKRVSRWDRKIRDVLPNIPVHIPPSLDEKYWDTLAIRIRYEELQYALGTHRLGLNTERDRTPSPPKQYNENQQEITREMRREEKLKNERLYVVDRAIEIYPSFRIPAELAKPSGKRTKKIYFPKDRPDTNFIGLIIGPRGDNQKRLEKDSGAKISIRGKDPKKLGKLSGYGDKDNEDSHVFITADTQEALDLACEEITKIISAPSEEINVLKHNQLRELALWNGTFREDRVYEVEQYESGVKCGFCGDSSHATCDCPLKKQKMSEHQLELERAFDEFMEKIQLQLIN

These are yes or no findings as the source states them, for the method shown. Binding calls can cover weak binding; strength is not graded here. Tags and fused reporters may be left off the sequences shown.

Regarding “GST-tagged SF1KQ (KH-QUA2 domain of EhSF1) (Entamoeba histolytica) (domain or fragment)”, the binding entry in assay [1] and in assay [2] was “binds” each time.

Regarding “His-tagged 84KQ (KH-QUA2 domain of EhU2AF2) (Entamoeba histolytica) (domain or fragment)”, in assay [3], the binding entry was “binds”.
